The supplement of paper PMC9226226
Values joined by “and” are separate entries in the source; they are usually repeats but may differ in a detail not shown here. Equal entries are not always repeated. The list shows a part of the results. Some well-known active drugs show little effect in this data set, so a weak value is uncertain.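 Human mesenchymal stem cells lacking the Werner syndrome gene, which age prematurely, were used. Automated live-cell imaging tracked growth across three biological repeats; the twenty drugs raising growth most relative to vehicle advanced, without a stated fixed cutoff.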

Tested on: Werner syndrome hMSCs (WRN-/-)
Assay: relative cell density (fold change vs vehicle control); higher = more proliferation (geroprotective)
Conditions: concentration (umol/L): 1, 6 days

SMILES | relative cell density (vehicle: DMSO) | relative cell density (vehicle: Water)
CN(C)CCCN1c2ccccc2Sc2ccc(Cl)cc21 | 1.27 | 
O=c1ccc2ccccc2o1 | 1.06 | 
COc1cc([C@@H]2c3cc4c(cc3[C@@H](O[C@@H]3O[C@@H]5CO[C@@H](c6cccs6)O[C@H]5[C@H](O)[C@H]3O)[C@H]3COC(=O)[C@H]23)OCO4)cc(OC)c1O | 0.522 | 
CCOc1ccccc1OC(c1ccccc1)C1CNCCO1 (centres undefined) | 1.12 | 
O=c1[nH]cnc2c1ncn2[C@@H]1O[C@H](CO)[C@@H](O)[C@H]1O | 1.2 | 
CCN(CCO)CCCC(C)Nc1ccnc2cc(Cl)ccc12 (centres undefined) |  | 1.17
Cc1nc(Nc2ncc(C(=O)Nc3c(C)cccc3Cl)s2)cc(N2CCN(CCO)CC2)n1 | 0.549 and 0.201 | 
CN(C)c1ccc(C(=C2C=CC(=[N+](C)C)C=C2)c2ccc(N(C)C)cc2)cc1 | 0.218 | 
CC(=O)[C@H]1CC[C@H]2[C@@H]3CC=C4C[C@@H](O)CC[C@]4(C)[C@H]3CC[C@]12C | 1.13 | 
COc1ccc(CC2c3cc(OC)c(OC)cc3CC[N+]2(C)CCC(=O)OCCCCCOC(=O)CC[N+]2(C)CCc3cc(OC)c(OC)cc3C2Cc2ccc(OC)c(OC)c2)cc1OC (centres undefined) | 0.948 | 
CC(C(=O)O)c1ccc2c(c1)CC(=O)c1ccccc1S2 (centres undefined) | 0.798 | 
Cc1nc(-c2ccc(OCC(C)C)c(C#N)c2)sc1C(=O)O | 1.36 | 
C[C@@H](O)[C@H]1C(=O)N2C(C(=O)[O-])=C(SC3Cn4cnc[n+]4C3)[C@H](C)[C@H]12 (some centres undefined) |  | 0.925
C=C1/C(=C\C=C2/CCC[C@]3(C)[C@@H]([C@H](C)/C=C/[C@H](C)C(C)C)CC[C@@H]23)C[C@@H](O)C[C@@H]1O | 1.13 | 
Cc1nnc(C(C)C)n1[C@H]1C[C@H]2CC[C@@H](C1)N2CC[C@H](NC(=O)C1CCC(F)(F)CC1)c1ccccc1 | 1.38 | 
CCCCN1CCCCC1C(=O)Nc1c(C)cccc1C (centres undefined) | 1.1 | 
COc1ccccc1OCC(O)COC(N)=O (centres undefined) | 0.96 | 
Nc1ccn([C@@H]2CS[C@H](CO)O2)c(=O)n1 | 1.06 | 
CCc1c(Cl)c(O)c(Cl)c(O)c1C(=O)O[C@H]1[C@H](O)[C@H](OC)[C@H](OC/C2=C\C=C\C[C@H](O)/C(C)=C/[C@H](CC)[C@@H](O[C@@H]3OC(C)(C)[C@@H](OC(=O)C(C)C)[C@H](O)[C@@H]3O)/C(C)=C/C(C)=C/C[C@@H]([C@@H](C)O)OC2=O)O[C@@H]1C | 1.33 | 
COC(=O)Nc1nc2cc([S+]([O-])c3ccccc3)ccc2[nH]1 (centres undefined) | 1.17 | 
CO/N=C(\C(=O)N[C@@H]1C(=O)N2C(C(=O)OC(C)OC(C)=O)=C(COC(N)=O)CS[C@H]12)c1ccco1 (some centres undefined) | 1.09 | 
COc1c(N2CCNC(C)C2)c(F)cc2c(=O)c(C(=O)O)cn(C3CC3)c12 (centres undefined) | 0.985 | 
O=C(c1ccccc1)c1ccc2n1CCC2C(=O)O (centres undefined) | 0.899 | 

Four entries from above, in markdown:

| SMILES | relative cell density (vehicle: DMSO) | relative cell density (vehicle: Water) |
| --- | --- | --- |
| CN(C)CCCN1c2ccccc2Sc2ccc(Cl)cc21 | 1.27 |  |
| CCN(CCO)CCCC(C)Nc1ccnc2cc(Cl)ccc12 (centres undefined) |  | 1.17 |
| COc1ccc(CC2c3cc(OC)c(OC)cc3CC[N+]2(C)CCC(=O)OCCCCCOC(=O)CC[N+]2(C)CCc3cc(OC)c(OC)cc3C2Cc2ccc(OC)c(OC)c2)cc1OC (centres undefined) | 0.948 |  |
| CC(C(=O)O)c1ccc2c(c1)CC(=O)c1ccccc1S2 (centres undefined) | 0.798 |  |

(cont.)

SMILES | relative cell density (vehicle: DMSO) | relative cell density (vehicle: Water)
O=C(C[S+]([O-])Cc1ccco1)NC/C=C\COc1cc(CN2CCCCC2)ccn1 (centres undefined) | 1.18 | 
C#CCC(Cc1cnc2nc(N)nc(N)c2n1)c1ccc(C(=O)N[C@@H](CCC(=O)O)C(=O)O)cc1 (some centres undefined) | 0.93 | 
CN(C)CC(c1ccc(O)cc1)C1(O)CCCCC1 (centres undefined) | 0.98 and 1.04 | 
NC(=O)[C@@H]1CCCN1C(=O)[C@H](Cc1c[nH]cn1)NC(=O)[C@@H]1CCC(=O)N1 | 1.08 | 
CCN[C@@H]1C[C@H](N)[C@@H](O[C@H]2OC(CN)=CC[C@H]2N)[C@H](O)[C@H]1O[C@H]1OC[C@](C)(O)[C@H](NC)[C@H]1O |  | 0.886
CC(C)(O)c1ccccc1CC[C@@H](SCC1(CC(=O)O)CC1)c1cccc(/C=C/c2ccc3ccc(Cl)cc3n2)c1 | 1.01 | 
O=C1NC(=O)C(c2ccccc2)(c2ccccc2)N1 | 1.01 | 
CN(C)C/C=C/C(=O)Nc1cc2c(Nc3ccc(F)c(Cl)c3)ncnc2cc1O[C@H]1CCOC1 | 0.703 and 0.344 | 
Cc1ccc(-n2nc(C(C)(C)C)cc2NC(=O)Nc2ccc(OCCN3CCOCC3)c3ccccc23)cc1 | 1.14 | 
CCCCCCCCCCCC[N+](C)(C)CCOc1ccccc1 | 0.872 | 
C=CC(=O)Nc1cccc(Oc2nc(Nc3ccc(N4CCN(C)CC4)cc3)nc3ccsc23)c1 | 0.955 | 
C[C@H](NC(=O)C(=O)Nc1ccccc1C(C)(C)C)C(=O)N[C@@H](CC(=O)O)C(=O)COc1c(F)c(F)cc(F)c1F | 1.05 | 
CN(C)CC/C=C1/c2ccccc2COc2ccc(CC(=O)O)cc21 | 0.975 | 
CC[C@H](C)C[C@H](C)CCCCCCCCC(=O)N[C@H]1C[C@@H](O)[C@@H](NCCN)NC(=O)[C@@H]2[C@@H](O)CCN2C(=O)[C@H]([C@H](O)CCN)NC(=O)[C@H]([C@H](O)[C@@H](O)c2ccc(O)cc2)NC(=O)[C@@H]2C[C@@H](O)CN2C(=O)[C@H]([C@@H](C)O)NC1=O |  | 1.27
CN(C)Cc1ccc(S(=O)(=O)n2ccc(/C=C/C(=O)NO)c2)cc1 | 0.529 | 
C[C@@H]1COC(Nc2ccc3ncnc(Nc4ccc(OCc5nccs5)c(Cl)c4)c3c2)=N1 | 0.976 | 
C#C[C@]1(O)CC[C@H]2[C@@H]3CCC4=CC(=O)CC[C@@H]4[C@H]3CC[C@@]21CC | 1 | 
CC(=O)OCC(=O)[C@H]1CC[C@H]2[C@@H]3CCC4=CC(=O)CC[C@]4(C)[C@H]3CC[C@]12C | 1.14 | 
CCCOc1ccc(C(=O)OCCN(CC)CC)cc1N | 1.03 | 
CN1C2CCC1CC(OC(=O)C(O)c1ccccc1)C2 (centres undefined) | 1.18 | 
CC[C@@H](CO)NCCN[C@@H](CC)CO | 1.29 | 
C[C@]1(Cn2ccnn2)[C@H](C(=O)O)N2C(=O)C[C@H]2S1(=O)=O | 1.03 | 
c1cn2cc(-c3ccc4cn[nH]c4c3)nc(Nc3ccc(N4CCOCC4)cc3)c2n1 | 1.01 | 

SMILES | relative cell density (vehicle: DMSO) | relative cell density (vehicle: Water)
O=C1CCC(N2C(=O)c3ccccc3C2=O)C(=O)N1 (centres undefined) | 0.918 | 
CCCCc1nc(Cl)c(CO)n1Cc1ccc(-c2ccccc2-c2nnn[nH]2)cc1 | 1.16 | 
CC1(C)S[C@@H]2[C@H](NC(=O)Cc3ccccc3)C(=O)N2[C@H]1C(=O)O | 0.964 and 1.36 | 
Cc1nc2n(c(=O)c1CCN1CCC(c3noc4cc(F)ccc34)CC1)CCCC2O (centres undefined) |  | 1.12
CC(=O)OCC1=C(C(=O)O)N2C(=O)[C@@H](NC(=O)Cc3cccs3)[C@H]2SC1 | 1.5 | 
Clc1ccc(C(Cn2ccnc2)OCc2csc3c(Cl)cccc23)c(Cl)c1 (centres undefined) | 1 | 
CCOc1ccc(NC(=O)CC(C)O)cc1 (centres undefined) | 1.16 | 
C[C@H]1[C@H](OC(=O)CCC(=O)O)O[C@@H]2O[C@@]3(C)CC[C@H]4[C@H](C)CC[C@@H]1[C@@]24OO3 | 0.659 | 
O=C(O)CCNC(=O)c1ccc(/N=N/c2ccc(O)c(C(=O)O)c2)cc1 | 1.27 | 
C[n+]1ccccc1/C=N/O |  | 1.34
Cc1cccc(Nc2ccccc2C(=O)O)c1C | 1.31 | 
CCC(C)n1ncn(-c2ccc(N3CCN(c4ccc(OCC5COC(Cn6cncn6)(c6ccc(Cl)cc6Cl)O5)cc4)CC3)cc2)c1=O (centres undefined) |  | 0.275
CCOc1cc(N)c(Cl)cc1C(=O)NCC1CN(Cc2ccc(F)cc2)CCO1 (centres undefined) | 1.43 and 1.05 | 
O=C1OC(CN2CCOCC2)CN1/N=C/c1ccc([N+](=O)[O-])o1 (centres undefined) | 1.11 | 
Cc1ccsc1C(=CCCN1CCC[C@@H](C(=O)O)C1)c1sccc1C | 0.998 | 
C[n+]1ccccc1C=NO | 1.11 | 
CCc1cnn2c(NCc3ccc[n+]([O-])c3)cc(N3CCCC[C@H]3CCO)nc12 | 0.145 | 
O=C1NC(=O)[C@@H](c2cn3c4c(cccc24)CCC3)[C@@H]1c1c[nH]c2ccccc12 | 0.315 | 
CCN(CC)Cc1cc(Nc2ccnc3cc(Cl)ccc23)ccc1O | 1.36 | 
CCC(=O)OCC(=O)[C@@]1(OC(=O)CC)[C@@H](C)C[C@H]2[C@@H]3CCC4=CC(=O)C=C[C@]4(C)[C@@]3(Cl)[C@@H](O)C[C@@]21C | 1.07 | 
O=C(/C=C/C=C/c1ccc2c(c1)OCO2)N1CCCCC1 | 1.23 | 
COc1nc(N)nc2c1ncn2[C@@H]1O[C@H](CO)[C@@H](O)[C@@H]1O | 0.942 | 
COc1ccccc1N1CCN(CCCNc2cc(=O)n(C)c(=O)n2C)CC1 | 0.982 | 

SMILES | relative cell density (vehicle: DMSO) | relative cell density (vehicle: Water)
C#C[C@]1(O)CC[C@H]2[C@@H]3CCC4=CCCC[C@@H]4[C@H]3C(=C)C[C@@]21CC | 1.4 | 
CN(C)[C@@H]1C(=O)C(C(N)=O)=C(O)[C@@]2(O)C(=O)C3=C(O)c4c(O)ccc(Cl)c4[C@@H](O)[C@H]3C[C@@H]12 | 1.14 | 
Cn1cnc([N+](=O)[O-])c1Sc1ncnc2[nH]cnc12 | 1.13 | 
CC(=O)Oc1cc2c(s1)CCN(C(C(=O)C1CC1)c1ccccc1F)C2 (centres undefined) | 0.855 and 0.824 | 
CC(C)C(=O)Nc1ccc([N+](=O)[O-])c(C(F)(F)F)c1 | 1.2 | 
OCCN1C[C@H](O)[C@@H](O)[C@H](O)[C@H]1CO | 1.1 | 
S=C(NCc1ccc2c(c1)OCO2)N1CCN(c2ncnc3c2oc2ccccc23)CC1 | 0.924 | 
CC(=O)OCC[N+](C)(C)C | 1.28 | 
COC(=O)C1=C(C)NC(C)=C(C(=O)OC(C)C)C1c1cccc2nonc12 (centres undefined) | 1.08 | 
C[C@H](CCC(=O)O)[C@H]1CC[C@H]2[C@@H]3CC[C@@H]4C[C@H](O)CC[C@]4(C)[C@H]3CC[C@]12C | 1.15 | 
CC(=O)SCC(Cc1ccccc1)C(=O)NCC(=O)OCc1ccccc1 (centres undefined) | 1.24 | 
O=C(O)CCCC[C@@H]1SC[C@@H]2NC(=O)N[C@@H]21 | 1.31 | 
CCOC(=O)Nc1ccc(NCc2ccc(F)cc2)nc1N | 1.03 | 
COCC(=O)Nc1c(I)c(C(=O)NCC(O)CO)c(I)c(C(=O)N(C)CC(O)CO)c1I (centres undefined) | 1.3 | 
NC(CO)C(=O)NNCc1ccc(O)c(O)c1O (centres undefined) | 1.24 | 
C[C@H]1COc2c(N3CCN(C)CC3)c(F)cc3c(=O)c(C(=O)O)cn1c23 | 1.27 and 1.24 | 
CCCC(=O)OCOC(=O)C1=C(C)NC(C)=C(C(=O)OC)C1c1cccc(Cl)c1Cl (centres undefined) | 1.06 | 
CN(C/C=C/C#CC(C)(C)C)Cc1cccc2ccccc12 | 1.09 and 1.03 | 
Nc1nc(O)c2ncn(CCC(CO)CO)c2n1 | 1.11 | 
Fc1ccc([C@@H]2CCNC[C@H]2COc2ccc3c(c2)OCO3)cc1 | 1.03 | 
